In publication PMC11199710 one finds binding data, which are given here for one substance.

The chains behind the UniProt entries cited, without tags or fusion partners.
UniProt P18065: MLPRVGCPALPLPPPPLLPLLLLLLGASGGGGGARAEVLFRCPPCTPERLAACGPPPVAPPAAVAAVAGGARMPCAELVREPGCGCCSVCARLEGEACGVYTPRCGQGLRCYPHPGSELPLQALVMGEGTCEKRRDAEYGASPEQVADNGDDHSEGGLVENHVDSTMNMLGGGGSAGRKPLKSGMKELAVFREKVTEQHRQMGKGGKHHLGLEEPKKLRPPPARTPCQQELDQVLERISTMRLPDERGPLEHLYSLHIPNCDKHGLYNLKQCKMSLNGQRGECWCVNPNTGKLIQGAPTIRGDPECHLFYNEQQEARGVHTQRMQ
UniProt P08648: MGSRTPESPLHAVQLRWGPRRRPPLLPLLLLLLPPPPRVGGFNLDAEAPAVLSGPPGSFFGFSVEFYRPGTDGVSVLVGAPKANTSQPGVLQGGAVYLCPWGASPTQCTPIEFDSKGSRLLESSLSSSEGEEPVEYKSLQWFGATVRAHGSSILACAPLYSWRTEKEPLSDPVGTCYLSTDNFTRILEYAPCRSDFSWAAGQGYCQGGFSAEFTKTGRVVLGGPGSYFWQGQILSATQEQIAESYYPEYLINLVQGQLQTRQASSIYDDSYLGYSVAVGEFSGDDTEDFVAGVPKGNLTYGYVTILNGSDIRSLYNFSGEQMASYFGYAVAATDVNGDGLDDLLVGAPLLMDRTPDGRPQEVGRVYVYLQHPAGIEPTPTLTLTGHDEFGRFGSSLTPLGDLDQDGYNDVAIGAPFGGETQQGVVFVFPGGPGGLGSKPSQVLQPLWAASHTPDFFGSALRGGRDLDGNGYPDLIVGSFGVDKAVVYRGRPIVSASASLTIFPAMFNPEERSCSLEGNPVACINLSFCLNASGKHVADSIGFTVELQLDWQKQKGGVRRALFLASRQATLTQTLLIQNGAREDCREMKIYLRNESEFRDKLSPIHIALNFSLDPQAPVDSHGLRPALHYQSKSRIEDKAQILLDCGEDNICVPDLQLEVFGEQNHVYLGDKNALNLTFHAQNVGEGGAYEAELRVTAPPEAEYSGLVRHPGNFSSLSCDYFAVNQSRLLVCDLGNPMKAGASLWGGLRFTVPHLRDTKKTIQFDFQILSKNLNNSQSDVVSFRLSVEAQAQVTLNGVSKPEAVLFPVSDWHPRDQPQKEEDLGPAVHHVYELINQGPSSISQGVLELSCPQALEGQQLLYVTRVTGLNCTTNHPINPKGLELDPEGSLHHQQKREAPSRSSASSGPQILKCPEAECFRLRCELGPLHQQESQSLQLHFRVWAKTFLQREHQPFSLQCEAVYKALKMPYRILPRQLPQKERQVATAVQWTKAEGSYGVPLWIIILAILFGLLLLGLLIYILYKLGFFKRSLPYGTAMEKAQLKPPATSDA

Results are given in words; binding and its absence hold for the method and conditions named.

This test concerns the target Insulin-like growth factor binding protein 2 (pAS-2-IGFBP2 construct) (UniProt P18065). Description: two-hybrid; pAS-2-IGFBP2 transformed into S. cerevisiae AH109, then pAS-2-ITGA5; cultured in selective media for 5~7 days.

Regarding “Integrin-α5 (pAS-2-ITGA5 construct) (from UniProt P08648 1-1049)”, the binding result was “no binding”.
